PubChem BioAssay AID1259254 – NCATS, 2017

Screen: 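Finding genes that stop cells copying their DNA twice in one cycle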 (primary screen)
Cell system: human HCT116 colorectal cancer cells
Knock-down reagent: single siRNA against human genes
Duration: 3 days
Read-out: 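Imaged Hoechst DNA stain sorts each cell into a cycle phase by DNA amount; per plate, G2 fraction set to 0% for non-targeting and 100% for GMNN siRNA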
Reading the numbers: G2 robust z-score and G2 cells, % of GMNN control: higher = more G2 cells, more excess DNA replication; raw share of cells in G2: higher = larger share of cells with G2 DNA content
Call rule: 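An siRNA counts as active if its G2 robust z-score lies at least 5 MADs above the screen median; here such calls match roughly 38% of GMNN control or more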
Here is a random part of about 59,000 reagents tested. Over the whole deposit, about 1,550 (2.6%) are marked active. 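G2 share is only a proxy for re-replication; each gene was hit by three separate siRNAs, and active genes were retested.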 Raw values vary from plate to plate and are shown uncorrected. Unmarked entries are inactive. The numbers tell different reagents against one gene apart. Reagent sequences are not shown. Not stated in the record: the amount of reagent.

Gene	reagent no.	G2 robust z-score	G2 cells, % of GMNN control	raw share of cells in G2 (%)
PSMD14 (proteasome 26S subunit, non-ATPase 14)	1	-0.591	-1.19	6.01
PSMD14 (proteasome 26S subunit, non-ATPase 14)	2	1.09	10.7	10.3
PSMD14 (proteasome 26S subunit, non-ATPase 14)	3	1.05	10.3	7.19
DCPH1 (damage control phosphatase 1)	1	-0.971	-3.87	1.68
DCPH1 (damage control phosphatase 1)	2	0.892	9.24	8.61
DCPH1 (damage control phosphatase 1)	3	-0.314	0.756	4.95
MLX (MAX dimerization protein MLX)	1	-0.317	0.74	5.23
MLX (MAX dimerization protein MLX)	2	-0.731	-2.18	3.85
MLX (MAX dimerization protein MLX)	3	-0.75	-2.31	3.38
ITPR1 (inositol 1,4,5-trisphosphate receptor type 1)	1	1.94	16.6	11.3
ITPR1 (inositol 1,4,5-trisphosphate receptor type 1)	2	0.608	7.24	7.23
ITPR1 (inositol 1,4,5-trisphosphate receptor type 1)	3	2.65	21.6	12.8
DOCK6 (dedicator of cytokinesis 6)	1	-0.336	0.605	5.9
DOCK6 (dedicator of cytokinesis 6)	2	1.27	11.9	8.57
DOCK6 (dedicator of cytokinesis 6)	3	1.65	14.6	9.53
TRAF6 (TNF receptor associated factor 6)	1	1.51	13.6	8.95
TRAF6 (TNF receptor associated factor 6)	2	-0.235	1.32	4.75
TRAF6 (TNF receptor associated factor 6)	3	1.95	16.7	12.6
BATF3 (basic leucine zipper ATF-like transcription factor 3)	1	-0.863	-3.1	3.04
BATF3 (basic leucine zipper ATF-like transcription factor 3)	2	-0.396	0.179	4.5
BATF3 (basic leucine zipper ATF-like transcription factor 3)	3	1.17	11.2	11.3
BARX1 (BARX homeobox 1)	1	0.334	5.32	6.35
BARX1 (BARX homeobox 1)	2	6.3 (active)	47.3	27.2
BARX1 (BARX homeobox 1)	3	-0.956	-3.76	2.77
PARD6G (par-6 family cell polarity regulator gamma)	1	0.0982	3.66	6.95
PARD6G (par-6 family cell polarity regulator gamma)	2	1.56	14	9.25
PARD6G (par-6 family cell polarity regulator gamma)	3	-0.649	-1.6	4.19
FLJ32255	1	2.49	20.5	11.4
FLJ32255	2	1.2	11.4	7.39
FLJ32255	3	-0.436	-0.099	3.12
